Experimental data reported in patent US8765808B2, “Treatment or prevention of cancer and precancerous disorders” (CHS Pharma, Inc., priority 2005, dated 2014).
For part of these data: At least one compound was matched to its structure with a doubt left. Some results were stated once for a whole list of compounds, not compound by compound.

What was measured:
[1] = tested on: lung carcinoma cell line designated A549; assay: MTS cell viability after pretreatment and oxidative stress, lung cancer cells; conditions: 500 μM 24 hr pretreatment, H2O2 tested 0-4 mM (FIG. 26)
[2] = tested on: SCC-25 squamous cell skin cancer cell line; assay: MTS cell viability after pretreatment and oxidative stress, SCC skin cancer cells; format: cell-based, human; conditions: other NSAIDs at comparable active concentrations, compared to sulindac
Procedure: (§1) SCC-25 is a human squamous cell carcinoma cell line developed by J G Rheinwald [Rheinwald, 1981]. […] The cells were maintained in minimum essential medium (Eagle) supplemented with 2 mM L-glutamine, Earle's BSS containing 1.5 g/L sodium bicarbonate, 0.1 mM non-essential amino acids, 1.0 mM sodium pyruvate and 10% fetal bovine serum.
The experimental approach was to pretreat SCC cells with sulindac for 24 hr prior to exposure to TBHP for 2 hr. Sulindac (Sigma; S-8139) was freshly prepared as a 1M stock solution in 1M Tris.Cl, pH 8.0. SCC cells were suspended in culture medium containing 10% fetal bovine serum at a cell density of 6×10^5 cells/ml. Cell suspensions containing 500 μM sulindac or no sulindac (Control) were plated in 96 well microtiter plates with a total of 6×10^4 cells per well. The plates were incubated for 24 hr at 37° C. in a 5% CO2 incubator. The culture medium was then removed and the cells washed once with fresh culture medium without serum. After removal of the wash solution, fresh culture medium without serum that contained the indicated final concentration of TBHP was added to the cells for 2 hrs. Serum was omitted from the medium during the two-hour exposure to TBHP since TBHP may be rapidly depleted in the presence of serum.

[3] = tested on: RKO colon cancer cell line; assay: MTS cell viability after pretreatment and oxidative stress, RKO colon cancer cells; format: cell-based, human; conditions: other NSAIDs at comparable active concentrations, compared to sulindac
Procedure: as §1, with “RKO” for “SCC-25”, “colon” for “squamous cell”, “Michael Brattain [Brattain, 1984].” for “J G Rheinwald [Rheinwald, 1981].”
Experiments were performed with the RKO colon cancer cells that were pretreated with 500 μM sulindac using TBHP.

CC1=C(CC(=O)O)c2cc(F)ccc2/C1=C\c1ccc([S+](C)[O-])cc1 (racemic) [sulindac, Sulindac]
hydrogen peroxide range of enhanced killing of the cancer cells [1]: 1.5 to 3.0 mM

Cc1ccc(-c2cc(C(F)(F)F)nn2-c2ccc(S(N)(=O)=O)cc2)cc1 [celecoxib]
sensitizing skin cancer cells to killing by TBHP [2]: ineffective
sensitizing colon cancer cells to killing by TBHP [3]: ineffective
